The supplement of paper PMC3334620
Whole data set: some 33,000 sequences, median “E-score (-0.5 to 0.5)” near -0.0034, cut for the highest 2% near 0.25. The list shows a part of the results.

What follows are sequences tested against T1, Yap3 (UniProt P38749) (assay: PBM E-score (8-mer binding enrichment) (E-score (-0.5 to 0.5)); higher = stronger / more preferred TF binding). Conditions: protein concentration: 100 nM; construct: GST-full length.
T1 sequence: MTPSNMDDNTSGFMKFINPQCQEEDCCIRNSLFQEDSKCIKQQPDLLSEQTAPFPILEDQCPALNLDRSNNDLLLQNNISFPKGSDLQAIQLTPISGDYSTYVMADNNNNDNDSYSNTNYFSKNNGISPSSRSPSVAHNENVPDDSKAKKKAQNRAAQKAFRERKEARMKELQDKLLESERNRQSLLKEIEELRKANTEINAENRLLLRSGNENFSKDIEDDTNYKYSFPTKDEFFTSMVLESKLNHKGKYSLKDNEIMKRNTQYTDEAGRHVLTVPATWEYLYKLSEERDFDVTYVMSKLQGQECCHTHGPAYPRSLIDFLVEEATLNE
In short: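 Each ungapped eight-base word and its reverse complement, pooled, received an E-score from the Universal PBM Analysis Suite. Underlying scans, normalised with masliner, recorded fluorescent anti-GST bound to GST-tagged yeast transcription factors. These were applied at about 100-200 nM to universal all-10-mer Agilent arrays double-stranded by primer extension.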

Sequence | PBM E-score
AAAATTCG | 0.148
AATCGCGC | 0.124
CCCCCGGA | -0.338
ACCCTTAT | 0.122
CTGTGGGC | -0.0254
GGCACCGA | -0.0393
CCATACCC | -0.209
CGGAGACA | 0.00741
CTGGGAGC | -0.297
AGGAGGGC | -0.381
CCATTCCA | -0.0802
GCGAAATA | -0.00036
AACGCGTC | 0.019
CAACAGAG | -0.0404
AAAACATC | 0.0461
AGATCACC | 0.063
CGCGATTC | 0.198
ACCGCATC | -0.0582
CGAATCAG | -0.019
CTCATCTA | 0.0126
ACACTCGT | 0.00445
AACATTAA | 0.154
TACCGGGA | -0.0163
AGTACAGA | 0.155
ACAACCAT | 0.334

Sequence | PBM E-score
AGTCCGAG | 0.0646
AGCTCACC | -0.122
GATCCAAA | -0.035
CCACTGAG | -0.253
TACTACTA | 0.223
AGCACTGG | -0.0579
AACAAGCT | 0.0372
GTTTGGGA | 0.128
CCACCCGC | -0.184
ACACCACT | 0.172
AATGTCCA | 0.0203
CAAATTCA | 0.0554
GATTTACC | 0.187
ATGGCAAT | 0.0617
CTAGCTAC | -0.139
GACCGGGA | -0.188
GTAATTGA | 0.115
AGTGTGTA | 0.135
CACCTTTA | -0.0718
GAGTTATC | 0.197
ATACCTAG | 0.169
AAGAGGAG | -0.115
ACTAATGG | 0.19
GATAGTGC | 0.0464
CAGAGCCG | -0.136

Two records picked at random from those above, as already listed:
Sequence | PBM E-score
CTAGCTAC | -0.139
CCCCCGGA | -0.338

Further results follow:

Sequence | PBM E-score
CGGCGCCA | -0.136
ACGCCCCG | -0.24
CCTGACAC | 0.0201
GATTCAAA | 0.0843
CATCCCAC | -0.25
AATAAAAG | 0.0973
CCAAGTCA | -0.0299
TCAAGACA | -0.0949
AGTTTGGC | 0.00695
CCTGCTCC | -0.139
AATCATGA | 0.275
AAAAACTT | 0.0325
CCGAGGGA | -0.213
GGTGACAC | -0.132
AGGCGCCA | -0.0435
CGGGCCCC | -0.246
CAGATTCG | -0.0389
CCAGACCC | -0.276
ACCAGATG | -0.165
TCGCACGA | -0.103
GGGACTCA | -0.305
GCTTCATA | -0.0535
AAGCAAAA | 0.095
CACACGGG | -0.0901
CTAATTTC | 0.197

Sequence | PBM E-score
GCGATAGC | -0.027
TAGAGAAA | 0.0112
CAAATACA | 0.247
CTGTGGGA | 0.0283
CAGCGGGC | -0.124
CAAACAGG | -0.0362
CTCGAAAC | 0.0621
CAGCTCCA | -0.051
AATACAAG | 0.24
CCGCCCCC | -0.346
CAGTTTCG | 0.0184
CTTCTGTA | 0.0878
GGGTTAAA | 0.0408
AATGGAGC | -0.0449
GGTCCGAC | -0.152
AACTTCCC | -0.0432
GCGACCGA | 0.136
AAGAAGTC | -0.0713
AGAAGAGA | -0.0441
ATTTTTCA | 0.0522
ATGCTTGG | 0.0354
CTACGAGA | 0.0168
ATCGATCC | -0.0338
CATGCGCG | 0.101
AGGAATTA | 0.203

Sequence | PBM E-score
CGATCAAA | -0.021
TAACCGCA | 0.236
CCTCCCCG | -0.0854
CATAGCGG | -0.25
ATTTCCTC | 0.00861
CGCTCTGC | -0.126
AACTCGTA | 0.214
CGAGCAGA | -0.165
CGAGAAAG | 0.103
AAGTTTGC | 0.169
ATCATGGA | -0.0169
AACGCACA | 0.139
GCCGCGGC | 0.225
ATTTTCAG | 0.286
TCGACAAA | 0.181
GCTAGCCC | -0.186
ATCCTCTA | -0.134
GGTAAGAA | -0.0371
AACCGAGA | 0.106
AGTAATGC | 0.13
CTCCCCAC | -0.17
CTAGCGGA | -0.135
GTAAACCA | 0.133
CACGCGGG | -0.121
CGAGGCTC | -0.184

Sequence | PBM E-score
ATTCGTAG | -0.0186
ACCTTACG | 0.178
GGATATTA | 0.0994
CAACTCAG | -0.162
AGATGCAT | 0.03
CATGATGC | 0.0141
AACGTCGG | -0.0805
ATAGCTTA | -0.0587
ATGGCTAG | -0.03
CCGTGCGC | -0.0466
CGTGTGCC | -0.15
GCAGCCCC | -0.281
ATGGCGCG | -0.0449
AGGAGACC | -0.0804
AGTCAGCG | -0.0344
GAACCACC | -0.0554
GTGCAAAA | 0.0965
ATCCAGAG | 0.0894
GTCGGAGA | -0.245
ACTGCTGC | -0.0152
TCGCAAGA | -0.0427
TCCCCTAA | 0.0799
CTTGACGC | -0.161
CTTTTGCA | 0.227
ACCAATAA | 0.0717

Sequence | PBM E-score
CTGCGTAA | 0.0826
CACCCAAA | 0.0709
AAATTCAG | 0.123
CCATAGGA | -0.183
TCCAGGAA | -0.0178
AACGCTGG | -0.0798
ACGTATTC | 0.123
AGCCGAAT | 0.00799
AGGTACGC | -0.0272
GCTTCGCC | -0.388
CCTTATCG | 0.0724
AAGTCAGG | 0.0833
TACGTACA | 0.197
ACTTGCGG | -0.12
ACCAGCTG | -0.0597
CAGGTATA | 0.00623
AAGATAGA | 0.122
CATATCAA | 0.275
CGCTAGGC | -0.153
GGCCCCAA | -0.195
ACGCATAC | 0.035
ACCGTCGC | 0.0385
ACCTGTGG | -0.219
CTATTGCA | 0.0522
CGCAGTCA | -0.0843

Sequence | PBM E-score
ACATGACT | -0.0255
CAGACTAG | -0.204
CCATCGAA | 0.0374
CACCAGTG | -0.153
ACGGCTGC | -0.269
CTCAGGAG | -0.141
AGAGTGGG | -0.0739
ACTTCCGC | 0.0174
ATAATCGA | 0.0902
CAGTTGGG | -0.0888
CAGTTCCC | -0.134
AGTTTCAC | -0.0173
CGCTGGAC | -0.214
CGGAGGGC | -0.241
ACATTAAT | 0.122
CTTCAATC | -0.0554
TCCGACGA | 0.0438
TGCGTCAA | 0.0343
CAATTCCC | 0.0681
CATTGCAC | 0.131
AACCTAGC | 0.0358
CCGTTGGA | -0.226
AGAGAGAG | -0.146
GATTGTCA | 0.0887
ATAACCCA | 0.0269

Sequence | PBM E-score
AAGCTGTA | 0.189
ATTGAGCA | 0.105
GTACAAGA | 0.0226
AGCTGTTA | 0.0511
CAAATAGA | 0.234
CTCCTAGA | -0.141
AGAACCCT | -0.224
AAAATGAC | 0.13
ACCCTCGA | -0.182
CGTACCAA | 0.21
CTCTGTGA | -0.0518
AAACAGCG | 0.2
GTGGACGA | -0.00243
ACCACGAA | -0.0824
ACGTGATG | 0.134
ATCCGAAC | 0.0611
AGCTTTCC | -0.0722
AGAGCCGA | -0.0137
CTAGTACA | 0.0825

Five successive entries from above, quoted:
Sequence | PBM E-score
AAGTCAGG | 0.0833
TACGTACA | 0.197
ACTTGCGG | -0.12
ACCAGCTG | -0.0597
CAGGTATA | 0.00623

Part of the list above, as labelled records.
AAGCTGTA
  PBM E-score: 0.189
AAACAGCG
  PBM E-score: 0.2
ACGTGATG
  PBM E-score: 0.134
AGAGCCGA
  PBM E-score: -0.0137
